This data set concerns NaPi2b expressing tumors. The experiment in a line: Phase 1b study of XMT-1536: duration on study and reason for discontinuation. Format: in vivo, human. From the text:
The study presented herein is an open label, multi-center Phase 1b study of XMT-1536 administered as an intravenous infusion once every three or four weeks. The dose escalation (DES) part of the study will establish the maximum tolerated dose (MTD) or recommended Phase 2 dose (RP2D) for XMT-1536 in patients with a number of tumor types likely to express NaPi2b, with a focus on patients with platinum-resistant ovarian cancer and non-squamous non-small cell lung cancer (NSCLC). […] The RP2D may differ from the MTD and may take into account tolerability, pharmacokinetic and pharmacodynamic measures, and efficacy of XMT-1536 based on RECIST 1.1. After the first cycle, patients may continue to receive XMT-1536 until disease progression provided the drug is well-tolerated and patients continue to derive clinical benefit in the opinion of the Investigator. The DES segment of the study utilized an accelerated titration design. The first 3-week cycle of treatment constitutes the dose limiting toxicity (DLT) evaluation period. For the first two dose levels, a minimum of 1 patient was treated at each dose level. If this patient experiences a treatment-emergent adverse event of Grade 2 or higher, 2 additional patients will be added at this dose level, and the study will subsequently follow a 3+3 design, as described below. […] Starting with Dose Level 3, the study will follow a standard 3+3 design, with 3 patients enrolled initially at each dose level. […] However, in the event of 1 DLT, 3 additional patients will be enrolled at the same dose level. Any dose level with 2 or more DLTs will be considered to exceed the MTD and subsequent patients will be enrolled at lower dose level(s). After the first cycle, patients may continue to receive XMT-1536 until disease progression if the drug is well-tolerated and patients continue to derive clinical benefit in the opinion of the Investigator.
After an August 2018 protocol amendment, each cycle will be 4-week (28 day) dose cycle. The first two, 4-week cycles of treatment (56 days) constitutes the dose limiting toxicity (DLT) evaluation period. Beginning with this amendment, up to 10 patients will be enrolled for evaluation at 20.0 mg/m^2 under the new 4-week cycle dose regimen. If that dose is cleared by the SRC, subsequent dose groups will follow a modified 3+3 design. Three patients will be enrolled initially and if toxicity issues arise, the SRC will review all pertinent data and may decide to add more patients to fully evaluate a dose in question and/or lower the dose. […] The observation period for DLTs is 56 days, between Day 1 through the end of Cycle 2 which includes the pre-dose assessments before receiving the Cycle 3 dose. A maximum of ten patients will be enrolled per dose level prior to the SRM. that will be conducted no later than 5 days after at least the sixth patient dosed in each level has completed Cycle 2, Day 28 evaluations. The data available for the patients dosed in all prior will be factored into the data review for each applicable dose escalation SRM. Any dose level with 2 or more DLTs occurring in 6 or fewer treated patients will be considered to exceed the MTD and subsequent patients will be enrolled at lower dose level(s). After the second cycle, patients may continue to receive XMT-1536 until disease progression if the drug is well-tolerated and patients continue to derive clinical benefit in the opinion of the Investigator. After completion of DES, the EXP segment of the study will be opened.
Treatment will continue indefinitely unless one of the following occurs: disease progression, inter-current illness that prevents further administration of treatment, unacceptable adverse events or pregnancy, patient non-compliance with the protocol, patient withdraws consent for participation from the study, and/or general or specific changes in the patient's condition render the patient unacceptable for further treatment in the judgment of the Investigator.

B1: XMT-1536: about 10-15 molecules of auristatin F-hydroxypropyl amide conjugated to a cysteine moiety of NaPi2b monoclonal antibody XMT-1535 via a PHF scaffold (conjugate, chains of the INN, looked up)
VH: QVQLVQSGAEVVKPGASVKMSCKASGYTFTGYNIHWVKQAPGQGLEWIGAIYPGNGDTSYKQKFRGRATLTADTSTSTVYMELSSLRSEDSAVYYCARGETARATFAYWGQGTLVTVSS
VL: DIQMTQSPSSLSASVGDRVTITCSASQDIGNFLNWYQQKPGKTVKVLIYYTSSLYSGVPSRFSGSGSGTDYTLTISSLQPEDFATYYCQQYSKLPLTFGQGTKLELK
modifications: auristatin F-hydroxypropyl amide via PHF scaffold
notes: about 10-15 molecules of auristatin F-hydroxypropyl amide conjugated to a cysteine moiety of NaPi2b monoclonal antibody XMT-1535 via a PHF scaffold
Turning to B1, the “Duration on Study Min/Max” value by setting is: (DL 1, 3 mg/m^2, 21-day cycle, N = 1, as of August 2019) 4 cycles; (DL 1, 3 mg/m^2, 21-day cycle, N = 1, as of February 2019) 4 cycles; (DL 2, 6 mg/m^2, 21-day cycle, N = 1, as of August 2019) 2 cycles; (DL 2, 6 mg/m^2, 21-day cycle, N = 1, as of February 2019) 2 cycles; (DL 3, 12 mg/m^2, 21-day cycle, N = 7, as of August 2019) 1 to 4 cycles; (DL 3, 12 mg/m^2, 21-day cycle, N = 7, as of February 2019) 1 to 4 cycles. Also, the “Duration on Study Min/Max” value lay in the range of 1 to 10 cycles (DL 4, 20 mg/m^2, 21-day cycle, N = 6, as of August 2019); 1 to 10 cycles (DL 4, 20 mg/m^2, 21-day cycle, N = 6, as of February 2019); 1 to 12 cycles (DL 4A, 20 mg/m^2, 28-day cycle, as of August 2019); 1 to 6 cycles (DL 4A, 20 mg/m^2, 28-day cycle, as of February 2019); 1 to 4 cycles (DL 5, 30 mg/m^2, 21-day cycle, N = 4, as of August 2019); 1 to 4 cycles (DL 5, 30 mg/m^2, 21-day cycle, N = 4, as of February 2019). Moreover, the “Duration on Study Min/Max” value (DL 5A Additional, 30 mg/m^2, 28-day cycle, N = 7, as of August 2019) was determined as 2 cycles; the “Duration on Study Min/Max” value (DL 5A, 30 mg/m^2, 28-day cycle, N = 7, as of February 2019) fell in the range of 2 to 3 cycles; the “Duration on Study Min/Max” value (DL 5A, 30 mg/m^2, 28-day cycle, N = 8, as of August 2019) is recorded as 2 to 6 cycles; the “Duration on Study Min/Max” value (DL 6, 40 mg/m^2, 21-day cycle, N = 1, as of August 2019) is 1 cycle; the “Duration on Study Min/Max” value (DL 6, 40 mg/m^2, 21-day cycle, N = 1, as of February 2019) worked out at 1 cycle; the “Duration on Study Min/Max” value (DL 6A, 28-day cycle, N = 7, as of August 2019) stood at 2 cycles. The “maximum duration on study for a patient ongoing in the trial” value (as of August 2019) came out at 50 weeks.

The values are drawn from patent publication US11407825B2, “NaPi2b-targeted polymer antibody-drug conjugates and methods of use thereof” (Mersana Therapeutics, Inc., priority 2018, dated 2022).
